Results on 2 molecules are retold here after patent publication US20190127481A1 (UNIVERSIT T Z RICH, published 2019).

Results are given in words; binding and its absence hold for the method and conditions named. Some binding calls cover weakened binding; strength is not graded here.

Assay [1] has as its target domain 1 of the ECD HER2 (individually expressed) (human) (UniProt P04626). The assay is described as follows: ELISA on domain 1 of the ECD HER2. For orientation: ELISA stands for enzyme-linked immunosorbent assay.
The target in assay [2] is HER2 (ErbB2/Neu) on the surface of HER2-overexpressing cancer cells (human) (UniProt P04626). The assay is described as follows: flow cytometry on viable HER2-overexpressing cancer cells (BT474, SkBr3, SkOv3). For orientation: Flow cytometry measures light scatter and fluorescence of single cells or particles in a stream.
For assay [3] the target is unchanged. The assay is described as follows: flow cytometry, dissociation of Alexa488-labelled agent from the cell surface in the presence of 100 nM unlabelled agent.
Assay [4] shares this target. Briefly: flow cytometry on BT474 cells, association time course of Alexa Fluor-488 labelled DARPin.

B1: DARPin 926 (designed binder)
chain: MRGSHHHHHHGSDLGKKLLEAARAGQDDEVRILMANGADVNAKDFYGITPLHLAAAYGHLEIVEVLLKHGADVNAHDWNGWTPLHLAAKYGHLEIVEVLLKHGADVNAIDNAGKTPLHLAAAHGHLEIVEVLLKYGADVNAQDKFGKTAFDISIDNGNEDLAEILQKLN
notes: Member of the 9XX collection
For B1, the binding entry in assay [1] was “binds”.

B2: DARPin H14 (designed binder)
chain: GSDLGKKLLEAARAGQDDEVRILMANGADVNATDIHGHTPLHLAAAMGHLEIVEVLLKNGADVNANDWRGFTPLHLAALNGHLEIVEVLLKNGADVNATDTAGNTPLHLAAWFGHLEIVEVLLKNGADVNAQDKFGKTAFDISIDNGNEDLAEILQKLN
Turning to B2, the binding result in assay [2], in assay [3] and in assay [4] was “binds” throughout.
